From PubChem BioAssay AID493014 (National Center for Advancing Translational Sciences (NCATS), 2011)
Hit rate of the full screen: of about 340,000 compounds, about 170 (0.05%) were called active. The shares of active, inactive and inconclusive entries below differ from those in the screen. Calls come from the whole dose curve; as a rule, active = well fitted inhibition curve with a large enough effect in the signal ratio, with a control signal flat (not every such curve was filed as active); inconclusive = small, poorly fitted or top-dose-only effect, or effect the other way, or a change in a side signal; inactive = flat fitted curve, though single readings scatter; the % refers to the signal ratio. Potencies of inconclusive entries are doubtful fits and often do not repeat.

assay: qHTS Assay to Find Inhibitors of Chronic Active B-Cell Receptor Signaling; conditions: ABC-DLBCL IkBa-CBG/CBR reporter, luminescence ratio (green luciferase fused to IkBa over red control in TMD8 lymphoma cells), 4 h; activity change, negative = inhibition: at 46.1 µM (top of the series) unless noted;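 for activity change, negative = inhibition: plate controls were basal doxycycline-induced cells for no effect and cells given 10 µM MG132 for full effect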
Procedure, shortened: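 TMD8 ABC-DLBCL cells carrying doxycycline-inducible green luciferase fused to IkappaBalpha plus unfused red luciferase were exposed to compounds (up to 46 uM) for 4 hrs at 37C. Activity came from the overlap-corrected green/red luminescence ratio.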
Potency is the fitted concentration of half-maximal effect.

| Structure (SMILES) | Potency | activity change, negative = inhibition |
| --- | --- | --- |
| COc1ccc(C)cc1NC(=O)c1ccccc1NS(=O)(=O)c1ccc(Cl)s1 | inconclusive: 35.5 µM [falling, single point] |  |
| O=C(NC(=S)Nc1ccc(F)c([N+](=O)[O-])c1)c1ccccc1F |  | inconclusive: -20% |
| c1ccc2c(-c3c[nH]c4ccccc34)c3ccccc3nc2c1 |  | inconclusive: -23.2% |
| Cc1ccc(C(=O)N/N=C/c2ccoc2)cc1C | inconclusive: 17.8 µM [falling, partial curve, poor fit] |  |
| O=c1nc2c(-c3ccccc3F)n[nH]n2c2ccccc12 |  | inconclusive: 356% |
| CCOC(=O)C1=C(C)NC(=S)NC1C (stereo unspecified) |  | inconclusive: 0.285% |
| CCc1cc2c(=O)c(-c3nc(C)cs3)coc2cc1O |  | inconclusive: 10% |
| COCC(C)Nc1ncnc2c1cnn2-c1ccc(Cl)cc1 (stereo unspecified) | inconclusive: 14.1 µM [falling, partial curve] |  |
| Cc1ccccc1OCCn1c(=O)sc2ccccc21 |  | inconclusive: 5.5% |
| O=C(c1cc(=O)c2ccccc2o1)N1CCN(c2ccccc2)CC1 |  | inconclusive: 8.72% |
| S=C(Nc1ccc(Br)cc1)NC1CCCC1 | inconclusive: 25.9 µM [falling, single point] |  |
| CCCC(=O)NC(c1ccc(N(C)C)cc1)c1c(O)ccc2ccccc12 (stereo unspecified) |  | inconclusive: -11% |
| COC(=O)c1ccccc1OCCOCCOc1cccc2ccc(C)nc12 |  | inactive: -14.1% |
| CN(C1CCS(=O)(=O)C1)S(=O)(=O)c1ccccc1 (stereo unspecified) | inconclusive: 0.0891 µM [falling, full curve, poor fit] |  |
| Cc1ccc(S(=O)(=O)N(CCCN2CCCC2=O)Cc2cc3c(C)ccc(C)c3[nH]c2=O)cc1 |  | inactive: -1% |
| CCOC(=O)C1CCN(C(=O)c2cc3c(s2)-c2ccccc2OC3)CC1 | inconclusive: 3.98 µM [falling, partial curve] |  |
| COc1cc(NC(=O)c2cc3ccccc3cc2OC)ccc1NC(=O)c1cccs1 |  | inactive: 4.84% |
| CC(=O)Nc1ccc(N(C(=O)CNC(=O)c2ccco2)C(C(=O)NCc2ccco2)c2ccccc2F)cc1 (stereo unspecified) |  | inactive: -1.27% |
| Cc1ccc(C)c(CN2C(=O)c3ccccc3Sc3ccc(C(=O)NCCCOC(C)C)cc32)c1 |  | inconclusive: -4.36% |
| NC(N)=N/N=C/c1ccc(OCc2ccccc2Cl)cc1 | inconclusive: 31.6 µM [rising, single point] |  |
| COCCC(=O)N1CCC(Oc2ccc(C(=O)NCc3cccc(C)n3)cc2)CC1 |  | inconclusive: 3.74% |
| CCc1ccc(C(=O)COC(=O)C2CCN(c3ccc(C(F)(F)F)cn3)CC2)cc1 |  | inactive: 0.514% |
| CCCc1cc(C(=O)Nc2cc(C)ccc2O)no1 | inconclusive: 22.4 µM [falling, single point] |  |
| O=C(CCCN1C(=O)/C(=C\c2cccc(Br)c2)SC1=S)Nc1cccnc1 | inconclusive: 35.5 µM [rising, single point] |  |
| O=C(NC1CCSc2ccccc21)c1ccc(F)c(S(=O)(=O)N2CCOCC2)c1 (stereo unspecified) |  | inconclusive: -1.87% |
| COc1cccc(CN2CCN(C(=S)NCc3ccc(Cl)cc3)CC2)c1 |  | inconclusive: -12.7% |

| Structure (SMILES) | Potency | activity change, negative = inhibition |
| --- | --- | --- |
| C/C=C/C=C/C(=O)N1CC2(CC(c3cccc(NC(=O)CCCCC)c3)=NO2)C[C@H]1C(N)=O (stereo partly specified) |  | inactive: -0.422% |
| COc1cccc(C2=NN(C(=O)c3ccc(C)o3)C(O)(C(F)(F)F)C2)c1 (stereo unspecified) | inconclusive: 10 µM [falling, partial curve] |  |
| NC(=O)CC1C(=O)N(c2ccccc2)C(=S)N1NC(=O)c1ccccc1 (stereo unspecified) | inconclusive: 35.5 µM [rising, single point] |  |
| COc1ccccc1NC(=S)NNC(=O)c1ccccc1Br | inconclusive: 11.6 µM [falling, partial curve] |  |
| Cc1cc(C)nc(N2N=C(CSc3ccc(Cl)cc3)CC2=O)n1 |  | inconclusive: 11.2% |
| O=C(Nc1cccc(C(F)(F)F)c1)c1cnc2n(c1=O)CCS2 |  | inconclusive: 17% |
| CC1CCN(C(=O)c2ccc(S(=O)(=O)N3CCOCC3)cc2)CC1 |  | inconclusive: 7.44% |
| COc1ccc(/C=N\NC(=O)C2CCCC2)cc1Br |  | inconclusive: -1.49% |
| Cc1ccc2nc(C)c(C(=O)NN=C3CCCCCC3)n2c1 | inconclusive: 7.94 µM [falling, partial curve, poor fit] |  |
| COc1ccccc1N(Cc1cc(=O)[nH]c2ccccc12)C(=O)c1ccccc1 | inconclusive: 17.8 µM [falling, partial curve, poor fit] |  |
| COCCn1c(N)c(N(Cc2ccccc2)C(=O)c2oc3ccccc3c2C)c(=O)[nH]c1=O |  | inconclusive: 7.27% |
| CC(Cc1cccs1)NC(=S)Nc1ccccc1 (stereo unspecified) |  | inconclusive: 6.13% |
| CC(C)Cn1c(SCC(=O)N(C)C2CCS(=O)(=O)C2)nc2cc(Cl)ccc2c1=O (stereo unspecified) |  | inconclusive: -14.2% |
| COc1cccc(/C=C2\SC(=O)N(CCC(=O)NCCCn3ccnc3)C2=O)c1 |  | inconclusive: -23.8% |
| CC(=O)c1ccc(NC(=O)CCCC(=O)c2ccccc2)cc1 |  | inconclusive: -1.29% |
| Cc1cc(C)c(S(=O)(=O)Nc2nccs2)c(C)c1 |  | inactive: -1.14% |
| Cc1nn(C2CCS(=O)(=O)C2)c(Cl)c1/C=C/C(=O)OCC(N)=O (stereo unspecified) | inconclusive: 3.98 µM [falling, partial curve, poor fit] |  |
| CCn1c(COc2ccccc2OC)nnc1SCC(=O)NC1CCCC1 |  | inconclusive: -1.16% |
| COc1cc(CNc2cccc(C(=O)O)c2)cc(Br)c1OCC(=O)NC(C)(C)C |  | inactive: 9.43% |
| Cc1cccc(N2CCC(N3CCN(C4CCCCC4)C(CCO)C3)CC2)c1C (stereo unspecified) | inconclusive: 35.5 µM [falling, single point] |  |
| CCc1ccc(-c2cc(C)no2)cc1S(=O)(=O)NCCc1ccccc1 |  | inactive: 6.88% |
| O=C(COC(=O)c1ccc(Cl)nc1)Nc1cccc(S(=O)(=O)N2CCCCC2)c1 |  | inconclusive: -1.33% |
| Cc1ccc(NC(=O)NNC(=O)c2cc3ccccc3cc2O)cc1 |  | inactive: 10.7% |
| CCCCSCCCNC(=O)c1cc(-c2cccnc2)nc2ccc(S(=O)(=O)N3CCC(C)CC3)cc12 |  | inactive: 2.77% |
| O=C(COC(=O)c1cc(Cl)ccc1O)Nc1cc(C(F)(F)F)ccc1N1CCOCC1 |  | inactive: -3.38% |

Some of the entries so far, as tab-separated lines:
Structure (SMILES)	Potency	activity change, negative = inhibition
C/C=C/C=C/C(=O)N1CC2(CC(c3cccc(NC(=O)CCCCC)c3)=NO2)C[C@H]1C(N)=O (stereo partly specified)		inactive: -0.422%
NC(=O)CC1C(=O)N(c2ccccc2)C(=S)N1NC(=O)c1ccccc1 (stereo unspecified)	inconclusive: 35.5 µM [rising, single point]	
O=C(Nc1cccc(C(F)(F)F)c1)c1cnc2n(c1=O)CCS2		inconclusive: 17%
O=C(COC(=O)c1cc(Cl)ccc1O)Nc1cc(C(F)(F)F)ccc1N1CCOCC1		inactive: -3.38%
